# Results of single-concentration screens

Chains of the proteins cited; added tags and fusions are not shown.
UniProt P9WPC5, whole entry: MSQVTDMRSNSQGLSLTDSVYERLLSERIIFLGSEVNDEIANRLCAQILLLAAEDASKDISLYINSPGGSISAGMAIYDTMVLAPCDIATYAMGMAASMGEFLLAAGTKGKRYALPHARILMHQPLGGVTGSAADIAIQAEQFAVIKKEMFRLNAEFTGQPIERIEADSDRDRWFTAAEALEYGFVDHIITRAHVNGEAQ
UniProt P9WPC3, whole entry partner: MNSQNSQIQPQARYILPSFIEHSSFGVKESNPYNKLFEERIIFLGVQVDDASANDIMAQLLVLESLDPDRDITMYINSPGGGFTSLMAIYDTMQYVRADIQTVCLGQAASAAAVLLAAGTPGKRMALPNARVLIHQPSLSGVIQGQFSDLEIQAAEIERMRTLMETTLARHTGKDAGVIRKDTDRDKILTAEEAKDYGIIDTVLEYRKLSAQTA

Toxoplasma: 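Assay of Toxoplasma gondii numbers, read through their beta-galactosidase reporter with a colour substrate. Compounds at 10 µM. Higher reads as fewer parasites (inferred from which compounds were picked for retests). About 67,000 compounds were tested under these conditions; 0.38% (about 260) showed 50% or more at least once.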
ClpP1P2: 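ClpP1P2, Mycobacterium tuberculosis (UniProt P9WPC5 and UniProt P9WPC3). Protease assay of ClpP1P2, read by the AMC dye that it sets free. Concentration: 50 µM. Direction is inferred from only a few compounds that gave an IC50; most scored high, so higher reads as stronger inhibition. Most other retested compounds had strongly negative values. Of about 69,000 compounds tested this way, about 10 (0.015%) reached 50% or more in at least one test.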

Results are given as percent effect. How 0% and 100% were set is not recorded. Most values in the screen are low, and negative values occur. This is an unselected part of the compounds tested. A dash means the value is not listed here; it may have been measured.

| SMILES | Toxoplasma | ClpP1P2 |
|---|---|---|
| `CCCS(=O)(=O)N1CCN(c2ccnc(N3CCCC3)n2)CC1` | 0.7966 | -8.526 |
| `CCCn1nnnc1CN(C)C(C)c1ccc(C)cc1` (stereo not shown) | 0.8954 | -3.673 |
| `c1ccc2nc(N3CCCC3c3nnc4n3CCCCC4)cnc2c1` (stereo not shown) | 15.97 | -260.2 |
| `COc1ccc(C(C)NC(=O)Cn2ccc(=O)n(C)c2=O)cc1F` (stereo not shown) | -2.771 | -26.57 |
| `O=C(NCc1cncc2c1CCN(Cc1ccccc1)C2)C1CC1` | - | -9.887 |
| `Cn1ncc2c(=O)[nH]c(CN3CCCC3c3cccc(F)c3)nc21` (stereo not shown) | 5.967 | -0.1194 |
| `COc1ccc(-n2nnnc2C(C)(C)Nc2ccc(C)cc2C)cc1` | 18.88 | -9.154 |
| `CC(C)NC(=O)c1cc(-c2ccc(S(C)(=O)=O)cc2)nc2c1cnn2C` | 1.791 | -6.569 |
| `Cc1ccc(OCc2ccc(C(=O)O)s2)cc1C` | 5.724 | 2.856 |
| `Cc1cc(C(=O)NCC2(C(N)=O)CCOCC2)nn1C(C)(C)C` | -10.52 | -11.79 |
| `C[C@@H]1CN(Cc2nc(C(N)=O)no2)CC[C@@]1(O)C1CCOCC1` | -24.73 | -8.811 |
| `COc1ncccc1NC(=O)N(Cc1ccccn1)C1CC1` | 0.3141 | -6.824 |
| `CCN1CCC(CNCc2cc(OC)ccc2OC)C1` (stereo not shown) | 6.906 | -10.36 |
| `O=C(c1ccc(Cl)cc1)N1CCC(N2CCCNC2=O)CC1` | 0.8529 | 21.41 |
| `[H][C@@]12NCCCC[C@]1([H])N(C(=O)c1cccc(OC)c1)C[C@H]2c1ccccc1` | 12.4 | - |
| `O=C(O)C(F)(F)F.[H][C@@]12CN(CC3CC3)CC[C@]1([H])CN(c1ncc(C)cn1)C2` | 10.22 | - |
| `Cc1cc(C)n(-c2ccc(C(C)NS(N)(=O)=O)cc2)n1` (stereo not shown) | -2.881 | 7.638 |
| `Cc1cc(CNC(=O)Nc2cccc(COCCOC(C)C)c2)no1` | -1.529 | -0.9889 |
| `CC(C)CCN1C[C@H]2C[C@H](C(=O)N3CCCC3)[C@@H](C1)O2` | - | -12.01 |
| `CCCc1cc(NCc2nc(COC)no2)n2nccc2n1` | -2.603 | 2.615 |
| `CN1Cc2ccccc2CC2(CCN(CCO)CC2)C1=O.O=C(O)C(F)(F)F` | 0.3613 | - |
| `CCNc1ncnc2c1CN(C1CCCNCC1)C(=O)CN2C` (stereo not shown) | 20.55 | 22.64 |
| `COCC(=O)N1CCn2c(COc3cccnc3)cnc2C1C` (stereo not shown) | - | 4.477 |
| `CC(SCC(=O)N(C)CC(=O)NC1CC1)c1ccccc1F` (stereo not shown) | -11.7 | -4.699 |
| `Cc1n[nH]c(C)c1S(=O)(=O)N1CCC(Oc2cnccn2)CC1` | - | -9.59 |
| `O=C(CC1CC1)N1CCC2(CCCN(CCOc3ccccc3)C2)C1.O=C(O)C(F)(F)F` (stereo not shown) | -19.91 | - |
| `CC(C)CCn1cc(C(C(=O)O)N2CCC(N3CCSCC3)CC2)cn1` (stereo not shown) | 13.42 | -9.122 |
| `CCOC1COC2(CCN(Cc3ccco3)CC2)C1` (stereo not shown) | - | -9.061 |
| `CCc1n[nH]c(C2CN(C(=O)c3ccnc(C)n3)CCO2)n1` (stereo not shown) | -16.93 | 8.404 |
| `COCC1c2c(cnn2C)CCN1C(=O)c1cccn1C` (stereo not shown) | - | -3.294 |
| `CCS(=O)(=O)N1C[C@H](c2nc(C)no2)C[C@H]2OCC[C@H]21` | - | 0.009365 |
| `Cc1ccsc1[C@@H]1CCN(C(=O)CCC(=O)c2ccccc2)C[C@H]1O` | 5.606 | -3.585 |
| `O=C(O)C(F)(F)F.O=C(O)C(F)(F)F.[H][C@@]12COC[C@]1(COCc1ccncc1)CN(Cc1ccsc1)C2` | 1.588 | - |
| `CCN(CC)c1ncc(CNC2CCc3ncnn3C2)s1` (stereo not shown) | 1.897 | -0.4283 |
| `COc1cccc(C(=O)N2CCOCC2CN(C)C)c1OC.O=CO` (stereo not shown) | -4.118 | - |
| `O=C(O)CCn1ccc2c(nnc3c(-c4ccc(F)cc4)cnn32)c1=O` | -4.106 | -9.06 |
| `COCCN1CCC(Nc2ccc(C#N)cc2F)CC1` | 6.973 | -3.786 |
| `COCCSc1ccc(C(C)NC(=O)Nc2cccnc2)cc1` (stereo not shown) | -6.376 | 0.9606 |
| `CC(C)OCCOCc1cccc(NC(=O)N2CCCC(O)C2)c1` (stereo not shown) | -0.3743 | 2.153 |
| `O=C(Cc1cccc(F)c1F)NS(=O)(=O)c1cncc(Cl)c1` | -0.5895 | -2.404 |
| `O=C(Cn1cnc(-c2cccs2)cc1=O)Nc1cccnc1` | 11.33 | -3.073 |
| `COC1CN(C(=O)Nc2ccccc2)CCC(=O)N(C)c2ccccc21` (stereo not shown) | -25.99 | -3.631 |
| `COc1ccccc1N1CC(NC(=O)Cn2cc(C)nn2)CC1=O` (stereo not shown) | -10.13 | -15.49 |
| `O=C(NCCN1CCCCC1CO)c1cc(-c2ccccc2)on1` (stereo not shown) | 6.032 | -0.04777 |
| `O=C(NC1CC2(CCN(CCO)CC2)c2ccccc21)c1ccno1.O=C(O)C(F)(F)F` (stereo not shown) | 2.859 | - |
| `Cc1nc(CCNCc2c(C)nn(C)c2N2CCOCC2)cs1` | 21.82 | -10.91 |
| `Cc1cccc(C(C(=O)N2CCN(C(=O)c3ccc[nH]3)CC2)N(C)C)c1` (stereo not shown) | 0.7519 | 0.00831 |
| `CC1=Nc2c(c(O)nn2C(C)C)C(c2cnn(C)c2)S1` (stereo not shown) | -2.217 | -3.605 |
| `CCc1nc(CCn2ccc3nc(OC)c(C#N)cc3c2=O)no1` | 8.886 | -0.4749 |
| `CCCNc1ncc(CN2CCN(C)C(=O)C2C)cn1` (stereo not shown) | -13.48 | 10.57 |
| `COC(=O)c1ccc(N2CCN(C(=O)C(C)C)C(C)C2)cc1` (stereo not shown) | -2.781 | 4.804 |
| `CCn1cc(S(=O)(=O)N2CCC3(CCCN(CC4CCC4)C3=O)C2)cn1` (stereo not shown) | 17.15 | 0.7541 |
| `CC(C(=O)NCCCN1CCCCCC1=O)n1cncn1` (stereo not shown) | -1.569 | 14.86 |
| `CC(C)c1nccc(CN2CCC(O)(CN3CCCCC3)C2)n1` (stereo not shown) | -41.71 | 0.9818 |
| `O=C(O)C(F)(F)F.[H][C@@]12CCCO[C@]1([H])[C@@H](OC)CN2C(=O)c1cccnc1` | 11.82 | - |
| `COCCn1ccc(=O)c(OCC(=O)Nc2ccccc2)c1C` | -6.575 | 3.816 |
| `CNC(=O)[C@@H]1C[C@@H](NC(=O)Cc2cccs2)CN1C1CCOCC1` | 4.026 | -10.85 |
| `CN(Cc1noc(-c2ccccc2)n1)C(=O)CSc1nnc(N)s1` | 12.99 | 20.36 |
| `CN1CCN(Cc2ccncc2)Cc2cccnc21` | -8.176 | 15.72 |
| `O=C(NCc1cc[nH]n1)NCC(O)COc1cccc(F)c1` (stereo not shown) | 0.9104 | -1.372 |
| `CCCN(CCc1ccccn1)C(=O)Cn1cnnn1` | -3.926 | 0.4639 |
| `CC(C(=O)N1CCCN(Cc2ccc(C#N)cc2)CC1)n1ccnc1` (stereo not shown) | 8.751 | 20.84 |
| `Cc1cc(C(=O)N2CCCC2)ccc1NCc1nc(CC(C)C)no1` | -13.38 | 4.764 |
| `Cc1ccc(C(=O)N(Cc2ccc(F)cc2)C2CC2)c(=O)[nH]1` | 5.312 | -2.876 |

Once more, the final 3:

SMILES,Toxoplasma,ClpP1P2
CC(C(=O)N1CCCN(Cc2ccc(C#N)cc2)CC1)n1ccnc1 (stereo not shown),8.751,20.84
Cc1cc(C(=O)N2CCCC2)ccc1NCc1nc(CC(C)C)no1,-13.38,4.764
Cc1ccc(C(=O)N(Cc2ccc(F)cc2)C2CC2)c(=O)[nH]1,5.312,-2.876

From ChEMBL document CHEMBL3988442, “University of Dundee, Small-Polar-MMV Screening Library” (2021).